From publication PMC8880767
Results are given in words; binding and its absence hold for the method and conditions named. In cells and extracts the contact can be indirect. Binding can be weak; no strength is given.

Amino acid sequences for entries named in this document (tags omitted). A change or cut given only in a name is not applied to a line headed by its entry.
UniProt P39938: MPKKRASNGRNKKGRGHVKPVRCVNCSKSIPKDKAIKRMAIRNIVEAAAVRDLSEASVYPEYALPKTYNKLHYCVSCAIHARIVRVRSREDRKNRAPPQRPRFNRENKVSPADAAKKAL

Target: T1, Rps3-TAP (Rps3–CBP–protein A) (S. cerevisiae) (UniProt P05750)
T1 sequence: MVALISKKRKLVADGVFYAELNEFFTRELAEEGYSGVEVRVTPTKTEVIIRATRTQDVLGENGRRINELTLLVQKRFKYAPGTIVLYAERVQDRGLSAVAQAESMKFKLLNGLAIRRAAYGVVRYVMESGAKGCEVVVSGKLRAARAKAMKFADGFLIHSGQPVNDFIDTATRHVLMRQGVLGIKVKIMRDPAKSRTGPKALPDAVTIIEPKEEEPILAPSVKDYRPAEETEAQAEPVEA
Assay: pull-down; Rps3-TAP (preexisting) ribosomes from yeast lysate on IgG sepharose, ~2 h 4°C; washed with 50 mM tris pH 7.5, 100 mM NaCl, 10 mM MgCl2, 0.075% NP-40; eluted with TEV protease; Western blot; cells with or without 1 M NaCl or 1 M sorbitol, or after 1 h recovery

## Rps26 (untagged, endogenous yeast protein) (from UniProt P39938)
  binding: binds
